Literature values in patent US20190262330A1, “Method of Treating Hepatocellular Carcinoma Using N-(4-(6,7-dimethoxyquinolin-4-yloxy)phenyl)-N′-(4-fluorophenyl)cyclopropane-1,1-dicarboxamide, (2S)-hydroxybutanedioate” (Exelixis, Inc., priority 2017, published 2019).
At least one structure is not confirmed: it was looked up by name or label, or the drawing left a doubt.

Tested on: sorafenib-pretreated patients with high tumor MET expression
Settings: MET-high study population; cited from earlier work

## O=C1NC(=O)[C@@H](c2cn3c4c(cccc24)CCC3)[C@@H]1c1c[nH]c2ccccc12 [Tivantinib]
  Impact on overall survival compared with placebo: no impact
  Impact on progression-free survival compared with placebo: no impact
